Assay results taken from patent US10098841B2, “Method of inducing a phase transition of a bilayer membrane vesicle” (Japan Science and Technology Agency, priority 2005, dated 2018).

Assay: Quantification of pseudo-ceramide 2B produced in the MLV by ESI-MS

Structure (SMILES)	Yield of pseudo-ceramide (CDMT 25 equivalents, C16 tertiary amine in MLV, 2 hr) [%]	Yield of pseudo-ceramide (CDMT 25 equivalents, C16 tertiary amine in MLV, 5 hr) [%]	Yield of pseudo-ceramide (CDMT 50 equivalents, C8 tertiary amine in MLV, 5 hr) [%]	Yield of pseudo-ceramide (CDMT 50 equivalents, C8 tertiary amine in MLV, 12 hr) [%]	Yield of pseudo-ceramide (CDMT 50 equivalents, C16 tertiary amine in MLV, 2 hr) [%]	Yield of pseudo-ceramide (CDMT 50 equivalents, C16 tertiary amine in MLV, 5 hr) [%]	production of pseudo-ceramide (in words) (CDMT added to MLV dispersion that does not contain a tertiary amine)	Yield of pseudo-ceramide (DMT-MM 50 equivalents, MLV without tertiary amine, 36 hr) [%]
COc1nc(Cl)nc(OC)n1 [CDMT, 2-chloro-4,6-dimethoxy-1,3,5-triazin]	42	92	7	20	80	88	not observed	–
COc1nc(OC)nc([N+]2(C)CCOCC2)n1.[Cl-] [DMT-MM, 4-(4,6-dimethoxy-1,3,5-triazin-2-yl)-4-methylmorpholium chloride]	–	–	–	–	–	–	–	9
